Among the data in paper PMC7496687 are binding values, retold here.

Chains of the proteins cited; added tags and fusions are not shown. Lines headed by an entry give the natural chain unless they say otherwise; changes in a name come on top.
UniProt P70604: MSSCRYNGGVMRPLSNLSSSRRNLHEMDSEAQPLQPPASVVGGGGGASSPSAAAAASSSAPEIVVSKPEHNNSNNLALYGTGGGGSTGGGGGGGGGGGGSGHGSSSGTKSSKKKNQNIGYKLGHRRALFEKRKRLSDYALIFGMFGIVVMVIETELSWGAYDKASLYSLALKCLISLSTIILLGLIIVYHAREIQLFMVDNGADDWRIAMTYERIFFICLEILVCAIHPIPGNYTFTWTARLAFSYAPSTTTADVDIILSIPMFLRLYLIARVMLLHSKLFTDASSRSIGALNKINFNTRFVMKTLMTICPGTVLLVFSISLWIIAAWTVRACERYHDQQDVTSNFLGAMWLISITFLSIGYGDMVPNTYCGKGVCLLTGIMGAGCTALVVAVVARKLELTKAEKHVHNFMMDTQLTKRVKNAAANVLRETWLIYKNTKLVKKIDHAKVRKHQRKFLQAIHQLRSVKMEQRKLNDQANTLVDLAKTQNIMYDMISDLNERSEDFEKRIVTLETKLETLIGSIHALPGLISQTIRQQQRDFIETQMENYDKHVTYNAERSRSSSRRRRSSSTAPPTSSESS
UniProt P63331: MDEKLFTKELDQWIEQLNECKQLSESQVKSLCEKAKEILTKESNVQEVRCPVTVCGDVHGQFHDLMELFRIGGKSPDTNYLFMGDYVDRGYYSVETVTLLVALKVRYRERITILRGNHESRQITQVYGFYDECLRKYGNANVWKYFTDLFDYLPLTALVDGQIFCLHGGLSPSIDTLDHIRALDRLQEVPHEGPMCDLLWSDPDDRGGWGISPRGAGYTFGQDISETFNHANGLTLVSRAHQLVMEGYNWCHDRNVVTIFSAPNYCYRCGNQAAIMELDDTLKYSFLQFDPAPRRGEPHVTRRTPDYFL

In the experiment the target is small-conductance Ca2+-activated K+ channel SK2 (rat (endogenous in rat ventricular myocytes)) (UniProt P70604). As to the kind of experiment: co-IP; SK2 immunoprecipitated with anti-SK2 antibody (Sigma SAB2501396, 5 μg) from lysates of freshly isolated Sham and TAB rat ventricular myocytes, 2 h at 4°C, Catch and Release v2.0 Kit; normal mouse IgG as negative control; analysed by immunoblotting.

No constants are given. Whether binding was seen depends on the method and setting. Binding seen in cells or lysates may run through a third protein. A result given as binding can be weak or reduced; the word gives no strength.

Turning to “protein phosphatase 2A C subunit (PP2A-C) (from UniProt P63331) (enzyme)”, the binding entry is “binds”.
